These are yes or no findings as the source states them, for the method shown. Some binding calls cover weakened binding; strength is not graded here. Where a sequence is shown, tags or fusion partners need not be part of it.

The target of experiment [1] is T1, La epitope 5B9 (SEQ ID No. 28) fused to human Fc domain (human).
T1 sequence: KPLPEVTDEY
Put plainly: SPR, Fig. 3E.

For experiment [2] the target is unchanged. Kind of experiment: SPR, Fig. 3C. A general note: Surface plasmon resonance follows binding to a sensor surface in real time, without labels.
For experiment [3] the target is unchanged. Put plainly: SPR, Fig. 3D.
Experiment [4] has the same target. Put plainly: SPR, Fig. 3B.
Experiment [5] has the same target. Kind of experiment: SPR, Fig. 3A.

B1: targeting module according to SEQ ID No. 6 (bispecific antibody)
chain: EVQLQQSGPELVKPGASVKMSCKASGYTFTDYYMKWVKQSHGKSLEWIGDIIPSNGATFYNQKFKGKATLTVDRSSSTAYMHLNSLTSEDSAVYYCTRSHLLRASWFAYWGQGTLVTVSAASGGGGSGGGGSGGGGSDFVMTQSPSSLTVTAGEKVTMSCKSSQSLLNSGNQKNYLTWYLQKPGQPPKLLIYWASTRESGVPDRFTGSGSGTDFTLTISSVQAEDLAVYYCQNDYSYPYTFGGGTKLEIKAAARGDIVMTQSPDSLAVSLGERVTMNCKSSQSLLNSRTPKNYLAWYQQKPGQSPKLLIYWASTRKSGVPDRFSGSGSGTDFTLTISSVQAEDVAVYYCKQSYNLLTFGGGTKLEIKGGGGSGGGGSGASAAGGGGSGGGGSQVQLVESGAEVVKPGASVKLSCKASGYAFTHYYIYWIKQAPGQGLEWIGGVNPSNGGTHFNEKFKSRATLTVDTSISTAYMELSRLRSDDTAVYYCTRSEYDYGLGFAYWGQGTLVTVSSGGGGSHHHHHHHH
As to B1, in experiment [1], the binding entry is “binds”.

B2: targeting module according to SEQ ID No. 4 (bispecific antibody)
chain: GQVQLVQSGAEVKKPGASVKMSCKASGYTFTDYYMKWVKQAPGQGLEWIGDIIPSNGATFYNQKFQGRATLTVDTSTSTAYMELSSLRSEDTAVYYCTRSHLLRASWFAYWGQGTLVTVSSASGGGGSGGGGSGGGGSDIVMTQSPDSLAVSLGERATINCKSSQSLLNSGNQKNYLTWYLQKPGQPPKLLIYWASTRESGVPDRFSGSGSGTDFTLTISSVQAEDVAVYYCQNDYSYPYTFGGGTKLEIKAAARGDIVMTQSPDSLAVSLGERVTMNCKSSQSLLNSRTPKNYLAWYQQKPGQSPKLLIYWASTRKSGVPDRFSGSGSGTDFTLTISSVQAEDVAVYYCKQSYNLLTFGGGTKLEIKGGGGSGGGGSGASAAGGGGSGGGGSQVQLVESGAEVVKPGASVKLSCKASGYAFTHYYIYWIKQAPGQGLEWIGGVNPSNGGTHFNEKFKSRATLTVDTSISTAYMELSRLRSDDTAVYYCTRSEYDYGLGFAYWGQGTLVTVSSGGGGSHHHHHHHH
Take B2: the binding entry in experiment [2] was “binds”.

B3: targeting module according to SEQ ID No. 5 (bispecific antibody)
chain: EVQLQQSGPELVKPGASVKMSCKASGYTFTDYYMKWVKQSHGKSLEWIGDIIPSNGATFYNQKFKGKATLTVDRSSSTAYMHLNSLTSEDSAVYYCTRSHLLRASWFAYWGQGTLVTVSAASGGGGSGGGGSGGGGSDFVMTQSPSSLTVTAGEKVTMSCKSSQSLLNSGNQKNYLTWYLQKPGQPPKLLIYWASTRESGVPDRFTGSGSGTDFTLTISSVQAEDLAVYYCQNDYSYPYTFGGGTKLEIKAAARGDIVMTQSPDSLAVSLGERATINCKSSQSLLNSRTPKNYLAWYQQKPGQPPKLLIYWASTRKSGVPDRFSGSGSGTDFTLTISSLQAEDVAVYYCKQSYNLLTFGGGTKVEIKGGGGSGGGGSGASAAGGGGSGGGGSQVQLVQSGAEVKKPGASVKVSCKASGYTFTHYYIYWVRQAPGQGLEWMGGVNPSNGGTHFNEKFKSRVTMTRDTSISTAYMELSRLRSDDTAVYYCARSEYDYGLGFAYWGQGTLVTVSSGGGGSHHHHHHHH
In the case of B3, the binding entry in experiment [3] is given as “binds”.

B4: targeting module according to SEQ ID No. 3 (bispecific antibody)
chain: GQVQLVQSGAEVKKPGSSVKVSCKASGYTFTDYYIHWVRQAPGQGLEWMGDIIPSNGATFYNQRFKGRVTITADESTSTAYMELSSLRSEDTAVYYCTRSHLLRASWFAYWGQGTLVTVSSASGGGGSGGGGSGGGGSDIVMTQTPLSLSVTPGQPASISCRSSQSLLNSGNQKNYLTWYLQKPGQSPQLLIYWASTRFIGVPDRFSGSGSGTDFTLKISRVEAEDVGVYYCQNDYSYPYTFGQGTKLEIKAAARGDIVMTQSPDSLAVSLGERATINCKSSQSLLNSRTPKNYLAWYQQKPGQPPKLLIYWASTRKSGVPDRFSGSGSGTDFTLTISSLQAEDVAVYYCKQSYNLLTFGGGTKVEIKGGGGSGGGGSGASAAGGGGSGGGGSQVQLVQSGAEVKKPGASVKVSCKASGYTFTHYYIYWVRQAPGQGLEWMGGVNPSNGGTHFNEKFKSRVTMTRDTSISTAYMELSRLRSDDTAVYYCARSEYDYGLGFAYWGQGTLVTVSSGGGGSHHHHHHHH
As to B4, the binding result in experiment [4] is recorded as “binds”.

B5: reference targeting module according to SEQ ID No. 2 (bispecific antibody)
chain: EVQLQQSGPELVKPGASVKMSCKASGYTFTDYYMKWVKQSHGKSLEWIGDIIPSNGATFYNQKFKGKATLTVDRSSSTAYMHLNSLTSEDSAVYYCTRSHLLRASWFAYWGQGTLVTVSAASGGGGSGGGGSGGGGSDFVMTQSPSSLTVTAGEKVTMSCKSSQSLLNSGNQKNYLTWYLQKPGQPPKLLIYWASTRESGVPDRFTGSGSGTDFTLTISSVQAEDLAVYYCQNDYSYPYTFGGGTKLEIKAAARGQVQLVQSGAEVKKPGASVKVSCKASGYTFTHYYIYWVRQAPGQGLEWMGGVNPSNGGTHFNEKFKSRVTMTRDTSISTAYMELSRLRSDDTAVYYCARSEYDYGLGFAYWGQGTLVTVSSGGGGSGGGGSGGGGSDIVMTQSPDSLAVSLGERATINCKSSQSLLNSRTPKNYLAWYQQKPGQPPKLLIYWASTRKSGVPDRFSGSGSGTDFTLTISSLQAEDVAVYYCKQSYNLLTFGGGTKVEIKGPEQKLISEEDLNSAVDHHHHHH
B5: the binding entry in experiment [5] is on record as “binds”.

Values taken from EP4296281A1.
